Measured values as given in publication PMC10313818.
No constants are given. Whether binding was seen depends on the method and setting. In cells and extracts the contact can be indirect. Some results given as binding are weak or reduced against the parent protein; the word gives no strength. One block for each molecule: values may come before it.

The chains behind the UniProt entries cited, without tags or fusion partners. Residues count along the entry.
UniProt O43676: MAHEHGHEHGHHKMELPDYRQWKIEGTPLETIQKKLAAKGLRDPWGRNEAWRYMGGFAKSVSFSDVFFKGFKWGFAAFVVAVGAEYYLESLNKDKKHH
UniProt P15954, residues 17-63: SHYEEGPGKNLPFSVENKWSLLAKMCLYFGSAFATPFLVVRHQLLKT
UniProt O43920: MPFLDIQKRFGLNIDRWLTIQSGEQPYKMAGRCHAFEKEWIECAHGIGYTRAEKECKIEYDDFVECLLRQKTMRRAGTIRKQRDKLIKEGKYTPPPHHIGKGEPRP
UniProt P14406, residues 24-83: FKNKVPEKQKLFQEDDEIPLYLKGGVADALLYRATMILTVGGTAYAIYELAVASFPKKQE
UniProt P10809, residues 27-573: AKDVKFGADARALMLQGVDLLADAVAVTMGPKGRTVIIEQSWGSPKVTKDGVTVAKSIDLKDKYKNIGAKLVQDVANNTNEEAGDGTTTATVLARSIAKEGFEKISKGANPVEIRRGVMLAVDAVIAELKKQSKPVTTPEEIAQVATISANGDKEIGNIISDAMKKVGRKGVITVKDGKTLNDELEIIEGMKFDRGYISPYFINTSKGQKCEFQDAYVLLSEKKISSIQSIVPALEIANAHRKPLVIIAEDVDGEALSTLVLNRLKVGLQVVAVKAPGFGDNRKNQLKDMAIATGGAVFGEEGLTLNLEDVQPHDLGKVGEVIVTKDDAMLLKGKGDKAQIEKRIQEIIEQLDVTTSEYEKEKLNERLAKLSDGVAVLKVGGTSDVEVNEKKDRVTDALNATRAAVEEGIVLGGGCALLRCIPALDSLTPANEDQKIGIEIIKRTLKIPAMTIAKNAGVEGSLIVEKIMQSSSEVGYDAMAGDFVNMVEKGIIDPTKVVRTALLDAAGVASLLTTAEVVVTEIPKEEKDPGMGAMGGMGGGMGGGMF

Columns and labels:
Experiment in all cases: cross-linking; CD-MS: DSS delivered by 70DSS-DDAB@PLGA/Kolliphor EL nanoparticles (1.8 mg/mL in medium, 6 h, 37 °C, 5% CO2) to the mitochondria of living HepG2 cells; proteins extracted and digested (i-FASP, trypsin), 30 high-pH RPLC fractions, LC-MS/MS, cross-linked peptides identified with pLink 2.0 against MitoCarta3.0 (FDR 1% at the spectrum level)
[1] = molecular target: NDUFB3 (human (endogenous in HepG2)) (UniProt O43676)
[2] = molecular target: COX7C (human (endogenous in HepG2)) (UniProt P15954)
[3] = molecular target: NDUFS5 (human (endogenous in HepG2)) (UniProt O43920)
[4] = molecular target: T1, succinate dehydrogenase [ubiquinone] iron-sulfur subunit (SDHB) (human (endogenous in HepG2)) (UniProt P21912)
T1 sequence: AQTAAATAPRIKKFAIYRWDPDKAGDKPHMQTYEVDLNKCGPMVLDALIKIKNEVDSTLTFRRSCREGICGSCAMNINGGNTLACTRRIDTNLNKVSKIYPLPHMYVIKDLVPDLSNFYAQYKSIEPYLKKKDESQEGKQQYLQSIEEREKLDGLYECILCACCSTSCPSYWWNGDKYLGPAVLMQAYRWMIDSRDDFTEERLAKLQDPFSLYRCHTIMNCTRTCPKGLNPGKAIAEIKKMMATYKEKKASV

[5] = molecular target: T2, pyruvate dehydrogenase E1 component subunit α (PDHA1) (human (endogenous in HepG2)) (UniProt P08559)
T2 sequence: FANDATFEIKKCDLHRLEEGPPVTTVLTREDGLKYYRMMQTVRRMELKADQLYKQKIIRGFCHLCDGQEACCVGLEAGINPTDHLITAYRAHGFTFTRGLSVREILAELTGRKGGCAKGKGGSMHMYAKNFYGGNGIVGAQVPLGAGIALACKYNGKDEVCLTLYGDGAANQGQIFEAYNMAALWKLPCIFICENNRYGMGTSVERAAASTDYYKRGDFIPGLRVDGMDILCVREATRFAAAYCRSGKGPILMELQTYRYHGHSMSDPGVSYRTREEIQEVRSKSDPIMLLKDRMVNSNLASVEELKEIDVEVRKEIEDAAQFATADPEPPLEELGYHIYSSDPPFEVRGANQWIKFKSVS

[6] = molecular target: citrin (SLC25A13) (human (endogenous in HepG2)) (UniProt Q9UJS0)

Molecule: COX7A2 (from UniProt P14406 24-83)
- binding [1]: binds

Molecule: HSPD1 (from UniProt P10809 27-573)
- binding [2]: binds
- binding [3]: binds

B2: 2-oxoglutarate dehydrogenase-like (OGDHL) (protein, UniProt Q9ULD0 74-1010)
chain: FREASEEAFSGSAQPRPPSVVHESRSAVSSRTKTSKLVEDHLAVQSLIRAYQIRGHHVAQLDPLGILDADLDSFVPSDLITTIDKLAFYDLQEADLDKEFQLPTTTFIGGSENTLSLREIIRRLENTYCQHIGLEFMFINDVEQCQWIRQKFETPGVMQFSSEEKRTLLARLVRSMRFEDFLARKWSSEKRFGLEGCEVMIPALKTIIDKSSEMGIENVILGMPHRGRLNVLANVIRKDLEQIFCQFDPKLEAADEGSGDVKYHLGMYHERINRVTNRNITLSLVANPSHLEAVDPVVQGKTKAEQFYRGDAQGKKVMSILVHGDAAFAGQGVVYETFHLSDLPSYTTNGTVHVVVNNQIGFTTDPRMARSSPYPTDVARVVNAPIFHVNADDPEAVIYVCSVAAEWRNTFNKDVVVDLVCYRRRGHNEMDEPMFTQPLMYKQIHRQVPVLKKYADKLIAEGTVTLQEFEEEIAKYDRICEEAYGRSKDKKILHIKHWLDSPWPGFFNVDGEPKSMTCPATGIPEDMLTHIGSVASSVPLEDFKIHTGLSRILRGRADMTKNRTVDWALAEYMAFGSLLKEGIHVRLSGQDVERGTFSHRHHVLHDQEVDRRTCVPMNHLWPDQAPYTVCNSSLSEYGVLGFELGYAMASPNALVLWEAQFGDFHNTAQCIIDQFISTGQAKWVRHNGIVLLLPHGMEGMGPEHSSARPERFLQMSNDDSDAYPAFTKDFEVSQLYDCNWIVVNCSTPANYFHVLRRQILLPFRKPLIIFTPKSLLRHPEAKSSFDQMVSGTSFQRVIPEDGAAARAPEQVQRLIFCTGKVYYDLVKERSSQDLEEKVAITRLEQISPFPFDLIKQEAEKYPGAELAWCQEEHKNMGYYDYISPRFMTILRRARPIWYVGRDPAAAPATGNRNTHLVSLKKFLDTAFNLQAFEGKTF
- binding [5]: binds

Further lines, results first:

- binding [4]: binds
B1: succinate dehydrogenase cytochrome b560 subunit (SDHC) (protein, UniProt Q99643 30-169)
chain: LGTTAKEEMERFWNKNIGSNRPLSPHITIYSWSLPMAMSICHRGTGIALSAGVSLFGMSALLLPGNFESYLELVKSLCLGPALIHTAKFALVFPLMYHTWNGIRHLMWDLGKGLKIPQLYQSGVVVLVLTVLSSMGLAAM

- binding [6]: binds
B3: citrin (SLC25A13) (protein, UniProt Q9UJS0 1-675)
chain: MAAAKVALTKRADPAELRTIFLKYASIEKNGEFFMSPNDFVTRYLNIFGESQPNPKTVELLSGVVDQTKDGLISFQEFVAFESVLCAPDALFMVAFQLFDKAGKGEVTFEDVKQVFGQTTIHQHIPFNWDSEFVQLHFGKERKRHLTYAEFTQFLLEIQLEHAKQAFVQRDNARTGRVTAIDFRDIMVTIRPHVLTPFVEECLVAAAGGTTSHQVSFSYFNGFNSLLNNMELIRKIYSTLAGTRKDVEVTKEEFVLAAQKFGQVTPMEVDILFQLADLYEPRGRMTLADIERIAPLEEGTLPFNLAEAQRQKASGDSARPVLLQVAESAYRFGLGSVAGAVGATAVYPIDLVKTRMQNQRSTGSFVGELMYKNSFDCFKKVLRYEGFFGLYRGLLPQLLGVAPEKAIKLTVNDFVRDKFMHKDGSVPLAAEILAGGCAGGSQVIFTNPLEIVKIRLQVAGEITTGPRVSALSVVRDLGFFGIYKGAKACFLRDIPFSAIYFPCYAHVKASFANEDGQVSPGSLLLAGAIAGMPAASLVTPADVIKTRLQVAARAGQTTYSGVIDCFRKILREEGPKALWKGAGARVFRSSPQFGVTLLTYELLQRWFYIDFGGVKPMGSEPVPKSRINLPAPNPDHVGGYKLAVATFAGIENKFGLYLPLFKPSVSTSKAIGGGP
